Laboratory results from article PMC5080453.

Sequences of proteins named here, by UniProt entry; tags and fusion partners are left off. A change or cut given only in a name is not applied to a line headed by its entry.
UniProt P13497: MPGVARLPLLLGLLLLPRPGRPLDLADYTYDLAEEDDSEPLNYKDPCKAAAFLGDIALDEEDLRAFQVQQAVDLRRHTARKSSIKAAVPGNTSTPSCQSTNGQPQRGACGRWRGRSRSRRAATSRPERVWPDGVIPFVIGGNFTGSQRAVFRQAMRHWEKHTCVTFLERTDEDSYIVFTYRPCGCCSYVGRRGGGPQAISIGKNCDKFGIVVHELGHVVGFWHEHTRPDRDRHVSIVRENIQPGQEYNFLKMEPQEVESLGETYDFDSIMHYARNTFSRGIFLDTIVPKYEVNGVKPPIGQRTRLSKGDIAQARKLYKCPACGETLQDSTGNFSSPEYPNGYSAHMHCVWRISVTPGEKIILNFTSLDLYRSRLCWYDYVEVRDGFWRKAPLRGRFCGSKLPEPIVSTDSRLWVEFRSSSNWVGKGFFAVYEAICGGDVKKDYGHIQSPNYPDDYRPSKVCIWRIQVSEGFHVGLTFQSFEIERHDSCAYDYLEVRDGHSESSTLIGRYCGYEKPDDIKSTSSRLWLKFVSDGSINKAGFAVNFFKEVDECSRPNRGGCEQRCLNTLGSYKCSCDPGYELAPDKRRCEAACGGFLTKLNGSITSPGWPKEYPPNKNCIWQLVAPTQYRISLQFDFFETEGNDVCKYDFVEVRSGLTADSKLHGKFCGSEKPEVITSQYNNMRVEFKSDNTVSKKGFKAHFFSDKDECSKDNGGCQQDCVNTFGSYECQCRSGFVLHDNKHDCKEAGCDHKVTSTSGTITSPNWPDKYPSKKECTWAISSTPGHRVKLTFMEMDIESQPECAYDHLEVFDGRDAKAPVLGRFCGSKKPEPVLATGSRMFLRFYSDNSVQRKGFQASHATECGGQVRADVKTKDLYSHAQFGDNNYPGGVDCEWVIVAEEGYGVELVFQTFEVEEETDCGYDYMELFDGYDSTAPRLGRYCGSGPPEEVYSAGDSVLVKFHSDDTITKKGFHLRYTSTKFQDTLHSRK
UniProt Q9H2X0: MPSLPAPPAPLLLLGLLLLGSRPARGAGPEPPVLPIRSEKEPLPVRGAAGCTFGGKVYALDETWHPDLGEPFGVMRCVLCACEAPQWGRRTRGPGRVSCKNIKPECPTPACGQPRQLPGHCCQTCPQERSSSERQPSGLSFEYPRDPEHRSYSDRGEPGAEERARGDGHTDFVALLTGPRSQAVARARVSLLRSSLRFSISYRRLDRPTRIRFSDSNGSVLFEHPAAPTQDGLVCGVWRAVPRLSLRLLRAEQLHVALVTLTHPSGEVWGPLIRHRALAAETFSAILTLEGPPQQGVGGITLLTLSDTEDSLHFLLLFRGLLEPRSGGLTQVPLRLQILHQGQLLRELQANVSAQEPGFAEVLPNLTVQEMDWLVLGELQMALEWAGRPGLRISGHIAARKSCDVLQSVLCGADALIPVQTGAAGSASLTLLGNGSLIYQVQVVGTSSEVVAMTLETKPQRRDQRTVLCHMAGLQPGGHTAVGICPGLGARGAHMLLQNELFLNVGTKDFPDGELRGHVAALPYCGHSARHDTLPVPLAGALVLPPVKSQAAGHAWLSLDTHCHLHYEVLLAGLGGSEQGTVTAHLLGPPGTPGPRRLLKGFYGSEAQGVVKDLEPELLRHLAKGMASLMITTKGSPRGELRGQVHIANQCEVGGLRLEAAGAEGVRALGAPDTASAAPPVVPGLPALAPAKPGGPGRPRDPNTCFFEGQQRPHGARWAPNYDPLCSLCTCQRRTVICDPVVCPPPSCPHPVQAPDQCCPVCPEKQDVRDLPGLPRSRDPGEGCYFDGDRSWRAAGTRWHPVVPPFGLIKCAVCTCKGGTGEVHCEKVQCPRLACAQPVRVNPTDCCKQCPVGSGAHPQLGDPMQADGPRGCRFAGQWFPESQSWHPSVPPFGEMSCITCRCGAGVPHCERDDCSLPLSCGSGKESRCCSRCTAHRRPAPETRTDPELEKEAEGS

What was measured:
mammalian tolloid (mTld) = mammalian tolloid (mTld) (UniProt P13497); experiment: SPR; Biacore T200, CM5 chip; 2400 RU of mTlD immobilised by amine coupling; 500 nM Tsg or 500 nM ΔN-chordin injected; 25 °C, 10 mM Hepes, 150 mM NaCl, 3 mM EDTA, 0.005% Tween-20, pH 7.4, 30 μl/min; both purified
[1] = molecular target: T1, human twisted gastrulation (Tsg), native (glycosylated) (human) (UniProt Q9GZX9); experiment: SPR; Biacore T200, CM5 chip; 830 RU of Tsg immobilised by amine coupling; 500 nM mTlD or 500 nM mTlDC4C5 injected; 25 °C, 10 mM Hepes, 150 mM NaCl, 3 mM EDTA, 0.005% Tween-20, pH 7.4, 30 μl/min; both purified
T1 sequence (chain, N-linked glycans (three predicted N-linked glycosylation sites)): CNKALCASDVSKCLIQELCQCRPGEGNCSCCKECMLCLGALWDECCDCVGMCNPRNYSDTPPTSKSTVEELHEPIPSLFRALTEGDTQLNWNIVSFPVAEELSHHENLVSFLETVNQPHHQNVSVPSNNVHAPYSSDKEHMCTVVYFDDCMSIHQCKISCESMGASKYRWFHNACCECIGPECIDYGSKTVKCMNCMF

binding (mammalian tolloid (mTld))	binding [1]	Substance
binds	–	ΔN-chordin (human chordin construct lacking the N-terminal part) (from UniProt Q9H2X0) (domain or fragment)
–	no binding (tested: 500 nM)	mammalian tolloid (mTld) (from UniProt P13497) (enzyme)

These are yes or no findings as the source states them, for the method shown. For some assays here: Binding calls can cover weak binding; strength is not graded here.
